Assay [1] deals with human Peroxisome Proliferator-activated Receptor delta (PPARd), PPARD (gene 5467) (UniProt Q03181). As to the kind of experiment: ATG_PPARd_TRANS: Attagene TRANS-FACTORIAL HepG2 Assay for human Peroxisome Proliferator-activated Receptor delta (PPARd) (AID 2283002). The method, boiled down:
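Measured quantity: GAL4-UAS reporter transcript induction in HepG2 after 24 h chemical dosing, with NR-Gal4 chimeras supplied by transient transfection. Detection by RT-PCR and capillary electrophoresis; upward fit against DMSO.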

Sequences of proteins named here, by UniProt entry; tags and fusion partners are left off. A change or cut given only in a name is not applied to a line headed by its entry.
UniProt Q03181: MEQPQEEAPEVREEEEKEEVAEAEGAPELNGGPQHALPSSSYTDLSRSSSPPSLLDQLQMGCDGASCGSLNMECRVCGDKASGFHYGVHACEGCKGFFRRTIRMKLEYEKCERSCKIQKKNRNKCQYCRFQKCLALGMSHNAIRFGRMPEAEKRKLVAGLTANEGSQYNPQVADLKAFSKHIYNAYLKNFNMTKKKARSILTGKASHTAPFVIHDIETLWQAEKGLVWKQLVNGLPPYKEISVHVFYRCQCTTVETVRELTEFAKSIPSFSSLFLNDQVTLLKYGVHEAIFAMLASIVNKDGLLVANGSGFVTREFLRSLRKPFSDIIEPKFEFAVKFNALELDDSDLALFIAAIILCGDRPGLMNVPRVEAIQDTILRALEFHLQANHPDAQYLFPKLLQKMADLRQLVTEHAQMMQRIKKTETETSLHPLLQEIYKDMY
UniProt P19793: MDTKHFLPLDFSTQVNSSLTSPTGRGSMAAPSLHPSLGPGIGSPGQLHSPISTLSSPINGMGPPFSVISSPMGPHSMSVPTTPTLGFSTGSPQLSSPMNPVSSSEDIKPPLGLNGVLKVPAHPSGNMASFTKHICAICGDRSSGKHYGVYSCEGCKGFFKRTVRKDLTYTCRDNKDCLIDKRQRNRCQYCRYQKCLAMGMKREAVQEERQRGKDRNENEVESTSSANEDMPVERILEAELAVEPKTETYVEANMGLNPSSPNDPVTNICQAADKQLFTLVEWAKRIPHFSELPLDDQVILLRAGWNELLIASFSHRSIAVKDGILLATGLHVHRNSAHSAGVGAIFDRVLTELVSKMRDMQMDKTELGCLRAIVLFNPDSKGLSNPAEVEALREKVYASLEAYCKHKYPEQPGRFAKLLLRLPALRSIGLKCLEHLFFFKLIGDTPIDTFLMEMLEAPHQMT
UniProt P10276, whole entry, looked up: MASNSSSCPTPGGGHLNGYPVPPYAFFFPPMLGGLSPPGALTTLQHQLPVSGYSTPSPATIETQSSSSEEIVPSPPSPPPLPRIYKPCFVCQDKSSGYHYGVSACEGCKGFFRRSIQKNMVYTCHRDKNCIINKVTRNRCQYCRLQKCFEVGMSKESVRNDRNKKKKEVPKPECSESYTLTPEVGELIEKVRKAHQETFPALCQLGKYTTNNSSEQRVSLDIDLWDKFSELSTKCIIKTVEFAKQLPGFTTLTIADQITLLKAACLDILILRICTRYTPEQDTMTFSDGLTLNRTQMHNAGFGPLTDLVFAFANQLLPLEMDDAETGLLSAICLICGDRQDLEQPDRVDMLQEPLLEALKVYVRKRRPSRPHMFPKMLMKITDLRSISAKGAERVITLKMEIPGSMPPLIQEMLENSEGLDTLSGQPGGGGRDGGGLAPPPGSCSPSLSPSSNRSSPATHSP
UniProt P33261, whole entry, looked up: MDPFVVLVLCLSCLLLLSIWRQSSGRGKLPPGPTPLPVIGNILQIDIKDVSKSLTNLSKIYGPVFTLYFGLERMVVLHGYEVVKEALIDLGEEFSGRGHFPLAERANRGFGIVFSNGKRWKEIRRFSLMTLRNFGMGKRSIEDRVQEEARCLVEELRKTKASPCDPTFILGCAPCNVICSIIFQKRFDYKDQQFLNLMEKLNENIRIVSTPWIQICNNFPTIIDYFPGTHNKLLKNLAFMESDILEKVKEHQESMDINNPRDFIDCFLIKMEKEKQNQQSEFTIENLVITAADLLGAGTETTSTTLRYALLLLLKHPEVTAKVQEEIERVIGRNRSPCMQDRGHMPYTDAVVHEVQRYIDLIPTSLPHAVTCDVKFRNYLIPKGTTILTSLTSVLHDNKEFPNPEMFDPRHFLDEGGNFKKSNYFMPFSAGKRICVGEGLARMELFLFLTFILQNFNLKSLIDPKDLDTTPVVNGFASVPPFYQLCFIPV
UniProt Q96RI1: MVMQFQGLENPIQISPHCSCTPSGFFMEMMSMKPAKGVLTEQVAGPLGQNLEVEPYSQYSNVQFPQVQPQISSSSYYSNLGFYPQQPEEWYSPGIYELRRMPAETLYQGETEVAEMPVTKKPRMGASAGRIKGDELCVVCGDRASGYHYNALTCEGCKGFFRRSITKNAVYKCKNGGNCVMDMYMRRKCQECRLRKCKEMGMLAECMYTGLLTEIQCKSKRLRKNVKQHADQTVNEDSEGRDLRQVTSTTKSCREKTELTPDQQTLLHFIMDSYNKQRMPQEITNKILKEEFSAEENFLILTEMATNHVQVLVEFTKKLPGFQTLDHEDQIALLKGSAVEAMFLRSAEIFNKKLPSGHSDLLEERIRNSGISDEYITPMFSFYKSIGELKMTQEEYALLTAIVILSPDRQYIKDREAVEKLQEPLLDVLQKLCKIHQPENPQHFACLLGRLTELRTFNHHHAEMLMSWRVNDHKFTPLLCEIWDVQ
UniProt P42574: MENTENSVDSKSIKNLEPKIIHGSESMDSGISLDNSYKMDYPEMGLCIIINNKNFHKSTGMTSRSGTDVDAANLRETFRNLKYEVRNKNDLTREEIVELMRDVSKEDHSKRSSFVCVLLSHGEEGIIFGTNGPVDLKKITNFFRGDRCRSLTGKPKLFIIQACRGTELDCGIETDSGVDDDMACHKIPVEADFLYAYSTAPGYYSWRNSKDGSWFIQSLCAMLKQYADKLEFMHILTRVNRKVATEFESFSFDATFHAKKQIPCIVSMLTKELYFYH
UniProt P10826, whole entry, looked up: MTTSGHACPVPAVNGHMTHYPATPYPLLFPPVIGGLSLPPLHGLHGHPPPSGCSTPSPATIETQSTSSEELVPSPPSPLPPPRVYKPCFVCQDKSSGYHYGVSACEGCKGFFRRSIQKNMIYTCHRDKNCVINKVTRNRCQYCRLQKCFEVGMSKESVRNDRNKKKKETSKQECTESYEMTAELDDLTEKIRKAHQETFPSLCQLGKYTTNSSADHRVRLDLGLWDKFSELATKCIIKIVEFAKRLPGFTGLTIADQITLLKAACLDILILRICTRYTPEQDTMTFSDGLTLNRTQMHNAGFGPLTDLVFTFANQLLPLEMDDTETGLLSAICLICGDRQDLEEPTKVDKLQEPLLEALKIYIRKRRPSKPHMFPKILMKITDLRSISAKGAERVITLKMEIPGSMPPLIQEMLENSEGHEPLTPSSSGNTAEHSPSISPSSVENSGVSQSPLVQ
UniProt Q07869: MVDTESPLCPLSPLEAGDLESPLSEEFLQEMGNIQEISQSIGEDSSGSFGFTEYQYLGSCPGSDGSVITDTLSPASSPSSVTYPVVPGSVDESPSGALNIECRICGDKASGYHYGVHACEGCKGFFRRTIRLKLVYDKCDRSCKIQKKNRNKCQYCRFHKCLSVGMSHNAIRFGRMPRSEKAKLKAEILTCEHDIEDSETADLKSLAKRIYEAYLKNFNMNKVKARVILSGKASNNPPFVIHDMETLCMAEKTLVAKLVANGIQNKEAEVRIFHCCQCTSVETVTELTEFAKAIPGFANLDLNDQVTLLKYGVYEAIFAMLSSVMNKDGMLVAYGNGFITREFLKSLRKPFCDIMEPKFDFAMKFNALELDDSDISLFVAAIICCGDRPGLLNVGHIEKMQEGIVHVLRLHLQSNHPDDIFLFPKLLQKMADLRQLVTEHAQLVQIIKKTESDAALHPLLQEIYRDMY
UniProt O75469: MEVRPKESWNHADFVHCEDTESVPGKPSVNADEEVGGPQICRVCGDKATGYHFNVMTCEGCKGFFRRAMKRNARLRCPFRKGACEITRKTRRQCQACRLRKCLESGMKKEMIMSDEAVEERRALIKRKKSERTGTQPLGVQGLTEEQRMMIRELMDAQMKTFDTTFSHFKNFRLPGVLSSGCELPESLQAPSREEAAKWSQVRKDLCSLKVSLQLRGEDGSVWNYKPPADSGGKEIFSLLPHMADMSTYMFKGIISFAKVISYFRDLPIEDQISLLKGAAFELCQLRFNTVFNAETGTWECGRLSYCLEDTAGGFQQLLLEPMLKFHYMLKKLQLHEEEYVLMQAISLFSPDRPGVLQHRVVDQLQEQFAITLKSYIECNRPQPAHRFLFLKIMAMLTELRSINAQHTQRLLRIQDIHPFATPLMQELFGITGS

Assay [2] concerns the target Retinoic acid receptor RXR-alpha (Homo sapiens) (UniProt P19793). As to the kind of experiment: ATG_RXRa_TRANS: Attagene TRANS-FACTORIAL HepG2 Assay for human Retinoid X Receptor alpha (RXRa) (AID 2283012). The method in brief:
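TRANS format reporting activity of exogenous RXRa-Gal4 chimera in transiently transfected HepG2, 24 h exposure. Reporter transcripts quantified by RT-PCR with capillary electrophoresis, with gain of signal scored relative to DMSO.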

Read-out in assay [3]: Intercellular Adhesion Molecule 1 (ICAM1), ICAM1 (gene 3383)
In words: BSK_3C_ICAM1: BioMAP Diversity Plus: 3C Assay for Intercellular Adhesion Molecule 1 (ICAM1) Biomarker Activity (AID 2283003; active = hit-call score of the fitted dose curve at least 0.9, where 1 is the maximum; inactive = score below 0.9). As to conditions: actives raise or lower the signal; primary human endothelial cells (HUVEC). The method in brief:
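ELISA readout of ICAM1 in human umbilical vein endothelial cells in the 3C system, taken 24 h post-dose. Gain or loss of signal versus DMSO was fitted in both directions, with SRB total-protein staining run in parallel.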

Read-out in assay [4]: Human Leukocyte Antigen - DR isotype (HLADR), HLA-DRA (gene 3122)
As to the kind of experiment: BSK_BE3C_HLADR: BioMAP Diversity Plus: BE3C Assay for Human Leukocyte Antigen - DR isotype (HLADR) Biomarker Activity (AID 2283032; active = hit-call score of the fitted dose curve at least 0.9, where 1 is the maximum; inactive = score below 0.9). The conditions noted are these: actives raise or lower the signal; primary human bronchial epithelial cells. The method in brief: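 Cell-surface HLA-DR ELISA readout at 24 h after dosing in the BE3C primary human lung bronchial epithelial system; gain or loss of signal against DMSO, with parallel sulforhodamine B staining of total protein for overt cytotoxicity.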

Read-out in assay [5]: Heat shock 70 kDa protein 1 (HSPA1A), gene 3303
As to the kind of experiment: LTEA_HepaRG_HSPA1A: Life Technologies and Expression Analysis (LTEA) Assay for Heat shock 70 kDa protein 1 (HSPA1A) using HepaRG (AID 2283502; active = hit-call score of the fitted dose curve at least 0.9, where 1 is the maximum; inactive = score below 0.9). As to conditions: actives raise or lower the signal; mRNA level, 48 h. The method, boiled down: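 HSPA1A expression measured by qRT-PCR with ACTB/GAPDH/POLR2A normalization; curves fitted in both directions relative to DMSO vehicle. Exposure: 48 h in HepaRG cells, duplicate 8-point half-log series from 100 uM, 0.5% DMSO, serum-free induction medium.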

Read-out in assay [6]: Paternally Expressed 10 (PEG10), PEG10 (gene 23089)
In words: LTEA_HepaRG_PEG10: Life Technologies and Expression Analysis (LTEA) Assay for Paternally Expressed 10 (PEG10) using HepaRG (AID 2283520; active = hit-call score of the fitted dose curve at least 0.9, where 1 is the maximum; inactive = score below 0.9;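 also: differentiated HepaRG human liver cells in serum-free induction medium with 0.5% DMSO; PEG10 transcript by qRT-PCR normalised to ACTB GAPDH and POLR2A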). The conditions noted are these: actives raise or lower the signal; mRNA level, 48 h. The method, boiled down: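 PEG10 transcript measured by Fluidigm qRT-PCR, normalized to three housekeeping genes, in HepaRG cells treated 48 h (highest 100 uM, half-log steps, 0.5% DMSO vehicle). Cells plated 48 h before switching to serum-free induction medium.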

A short description of assay [7]: CPHEA_Stoker_NIS_Cytotoxicity: Cytotoxicity Assessment for CPHEA's Radioactive Iodide Uptake (RAIU) Assay for Sodium/Iodide Symporter (NIS) Inhibition, Stoker and Laws Labs (AID 2283897).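 Also: active means loss of ATP signal versus DMSO meaning cytotoxicity.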 The method in brief:
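CellTiter-Glo ATP luminescence gauged viability in HEK293T cells expressing human NIS after 2 h chemical exposure. Concentrations ran 0.001–100 uM in 0.5% DMSO; DMSO served as baseline for the loss-of-signal fit.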

For assay [8], the target named is Retinoic acid receptor alpha (Homo sapiens) (UniProt P10276). As to the kind of experiment: ATG_RARa_TRANS: Attagene TRANS-FACTORIAL HepG2 Assay for human Retinoic Acid Receptor alpha (RARa) (AID 2283005). The method, boiled down:
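HepG2 cells transiently transfected with multiple reporter units expressing chimeric RARα-GAL4 fusion, with GAL4-UAS-driven reporters. After 24 h compound exposure, reporter mRNA induction quantified by RT-PCR and capillary electrophoresis with fluorescent labeling; gain-of-signal fitted relative to DMSO control.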

Assay [9] deals with Cytochrome P450 2C19 (Homo sapiens) (UniProt P33261). As to the kind of experiment: NVS_ADME_hCYP2C19: NovaScreen (NVS) CYP450-related Enzyme Activity (ADME) Assay for human CYP2C19 (AID 2283113).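 Also: potency for inhibition seen as loss of fluorescent signal.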 The method in brief:
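Recombinant insect-cell-expressed enzyme, fluorescent substrate, 1 h after chemical addition, fluorescence intensity. Baseline = acetonitrile vehicle; activity scored as signal loss. Primary HTS single concentration 10 uM, duplicate; actives retested in concentration series.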

Assay [10] deals with Bile acid receptor (Homo sapiens) (UniProt Q96RI1). In words: OT_FXR_FXRSRC1_1440: Odyssey Thera (OT) 24-hour HEK293T Protein-Complementation Assay for Farnesoid X receptor/SRC-1 Co-activator (AID 2283384). The method in brief:
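Protein-fragment complementation: FXR and SRC-1 fused to reporter fragments that reassemble on interaction, read by fluorescence intensity. Human HEK293T cells measured 24 h post-dose; positive-direction fit versus DMSO.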

Read-out in another assay: Caspase-3 (Homo sapiens) (UniProt P42574)
As to the kind of experiment: LTEA_HepaRG_CASP3: Life Technologies and Expression Analysis (LTEA) Assay for cysteine-aspartic acid protease (CASP3) using HepaRG (AID 2283477; active = hit-call score of the fitted dose curve at least 0.9, where 1 is the maximum; inactive = score below 0.9). The conditions noted are these: actives raise or lower the signal; mRNA level, 48 h. The method in brief: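 HepaRG, 48 h exposure, 8 conc. (top 100 uM, half-log steps, duplicate), 0.5% DMSO vehicle; qRT-PCR of CASP3 transcript, housekeeping-normalised (ACTB/GAPDH/POLR2A); bidirectional curve fit vs DMSO baseline.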

For assay [11], the target named is human Retinoic Acid Receptor beta (RARb), RARB (gene 5915) (UniProt P10826). As to the kind of experiment: ATG_RARb_TRANS: Attagene TRANS-FACTORIAL HepG2 Assay for human Retinoic Acid Receptor beta (AID 2283004). The method, boiled down: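 Readout is reporter mRNA induction: RNA reverse-transcribed, PCR-amplified, FAM-labelled, HpaI-cut and resolved by capillary electrophoresis. Transiently transfected HepG2 cells carrying exogenous NR–Gal4 chimeras were dosed for 24 h; activity fitted upward relative to DMSO.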

The target of assay [12] is human Peroxisome Proliferator-activated Receptor alpha (PPARa), PPARA (gene 5465) (UniProt Q07869). As to the kind of experiment: ATG_PPARa_TRANS: Attagene TRANS-FACTORIAL HepG2 Assay for human Peroxisome Proliferator-activated Receptor alpha (PPARa) (AID 2283001).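 Also: potency for gain of reporter signal over DMSO so agonist or activator.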 The method, boiled down:
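Cells (HepG2) are transfected with multiple reporter transcription units, exposed to chemical for 24 h, then total RNA is reverse-transcribed and amplified. Labelled products are quantified by capillary electrophoresis; induction is referenced to DMSO.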

In assay [13] the target is Nuclear receptor subfamily 1 group I member 2 (Homo sapiens) (UniProt O75469). In words: ATG_PXR_TRANS: Attagene TRANS-FACTORIAL HepG2 Assay for human Pregnane X Receptor (PXR) (AID 2283008). The method in brief: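 Transactivation by exogenous PXR–GAL4 fusion measured as reporter transcript induction after 24 h compound treatment of transfected human HepG2 cells. Read-out via RT-PCR and capillary electrophoresis of labelled fragments, fitted upward relative to DMSO.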

Read-out in assay [14]: Interleukin-1 alpha (IL1a), IL1A (gene 3552)
In words: BSK_BE3C_IL1a: BioMAP Diversity Plus: BE3C Assay for Interleukin-1 alpha (IL1a) Biomarker Activity (AID 2283016; active = hit-call score of the fitted dose curve at least 0.9, where 1 is the maximum; inactive = score below 0.9). The conditions noted are these: actives raise or lower the signal; primary human bronchial epithelial cells. The method in brief:
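IL-1a measured by ELISA after 24 h treatment of human primary bronchial epithelial cells, with gain or loss of signal fitted versus DMSO. Parallel cultures stained with SRB gauge overt cytotoxicity.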

Read-out in assay [15]: Interleukin-8 (IL8), CXCL8 (gene 3576)
In words: BSK_3C_IL8: BioMAP Diversity Plus: 3C Assay for Interleukin-8 (IL8) Biomarker Activity (AID 2283020; active = hit-call score of the fitted dose curve at least 0.9, where 1 is the maximum; inactive = score below 0.9). As to conditions: actives raise or lower the signal; primary human endothelial cells (HUVEC). The method in brief:
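IL-8 was measured by ELISA in HUVEC cultures 24 h after chemical dosing, with gain or loss of signal fitted relative to DMSO. Parallel SRB total-protein staining tracked overt cytotoxicity.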

Read-out in assay [16]: Thrombomodulin, THBD (gene 7056)
As to the kind of experiment: BSK_CASM3C_Thrombomodulin: BioMAP Diversity Plus: CASM3C Assay for Thrombomodulin Biomarker Activity (AID 2283051; active = hit-call score of the fitted dose curve at least 0.9, where 1 is the maximum; inactive = score below 0.9;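 also: thrombomodulin protein level measured by ELISA 24 h after dosing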). As to conditions: actives raise or lower the signal; primary human coronary artery smooth muscle cells.

The nature of assay [17]: CEETOX_H295R_OHPREG: CeeTox H295R High-throughput Steroidogenesis Assay for OH-Pregnenolone (OHPREG) (AID 2283434; active = hit-call score of the fitted dose curve at least 0.9, where 1 is the maximum; inactive = score below 0.9). As to conditions: actives raise or lower the signal.
Read-out in assay [18]: ATP-citrate lyase (ACLY), ACLY (gene 47)
As to the kind of experiment: LTEA_HepaRG_ACLY: Life Technologies and Expression Analysis (LTEA) Assay for ATP-citrate lyase (ACLY) using HepaRG (AID 2283466; active = hit-call score of the fitted dose curve at least 0.9, where 1 is the maximum; inactive = score below 0.9). As to conditions: actives raise or lower the signal; mRNA level, 48 h. The method, boiled down: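 ACLY expression changes in human HepaRG liver cells are quantified by qRT-PCR after 48 h exposure to test chemicals (maximum 100 uM, half-log steps). Values are fitted in both directions relative to 0.5% DMSO vehicle.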

A short description of assay [19]: TOX21_p53_BLA_p2_viability: Viability Assessment in the Tox21 HCT-116 p53 Agonism Beta-lactamase Assay, Phase 2 (AID 2283591).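 Also: compound exposure lasted 16 h at 37 °C; actives lower the ATP signal meaning cytotoxicity.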 The method in brief: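 HCT-116 p53-bla cells (4000/well) rested 5 h at 37C, then received compounds in DMSO (217-fold dilution) for 16 h at 37C, 5% CO2. After the CCF4 read, CellTiter-Glo was added; ATP luminescence was read after 30 min at room temperature.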

Molecules are shown by their SMILES. For part of these data: The hits were mostly taken out for another list; the other results follow. This is a selection; strong and weak results do not stand in their true shares. Results filed as inconclusive are left out. The source holds several records for some structures; these can differ, active in one and inactive in another. Calls of active or inactive are those of the source. The calls were made as follows, unless noted: active = hit-call score of the fitted dose curve at least 0.9, where 1 is the maximum; inconclusive = response in the unintended direction; inactive = score below 0.9.

In PubChem BioAssay (EPA / NIEHS) one finds outcome and AC50 data, which are given here for six compounds.

As for `N#CSCSc1nc2ccccc2s1`, the outcome in [1] and in assay [2] was inactive.

One may read the AC50 as the concentration at which the activity in the assay is half-maximal. On to `NC(=O)c1nc(-c2cccc(-c3cc(F)ccc3OCC(F)(F)C(F)(F)F)c2)n[nH]1`, for which the AC50 in [3] was active: 35.1 µM; in assay [4] it was active: 27.5 µM; in assay [5] it was active: 71.7 µM; in assay [6], active: 16.1 µM; in assay [7] it was active: 9.92 µM.

Regarding `CCCCCOC(=O)CCC`, the outcome in [8] was inactive.

Consider `CC(C)(c1cc(Br)c(O)c(Br)c1)c1cc(Br)c(O)c(Br)c1`, for which the result in assay [1] was inactive. The AC50 in [9] is active: 1.5 µM; in assay [10], active: 72.9 µM; with Caspase-3 (Homo sapiens), active: 76.7 µM.

Consider `[Cl][In]([Cl])[Cl]`, for which the compound was called inactive in assay [11].

`O=c1c(-c2ccc(O)cc2)coc2cc(O)cc(O)c12`: the AC50 is active: 43.3 µM in assay [12], active: 23.4 µM in [13], active: 15.1 µM in assay [15] and active: 13.1 µM in [17]. For the same compound, the outcome in [14], in assay [16], in assay [18] and in [19] was inactive.
